Results taken from patent publication US5827516A, “Immunomodulatory peptides” (President and Fellows of Harvard College, priority 1995, dated 1998).
Part of at least one peptide drawing is inferred or uncertain, most often the ends. Ends that are not written are not given here.

What was measured:
HLA-DR1 [1] = molecular target: T1, HLA-DR1 (Homo sapiens, UniProt P01903+P01911, A100R/D57E/F55L/F60I/F76Y/I96L/L162R/M171V/P40L/Q125E/R42F/V115G/Y59C); test: Competition against 125I-labeled HA 307-319 for binding to "empty" HLA-DR1
T1 construct: made in house; host or cells: Sf9 insect cells

HLA-DR1 [2] = molecular target: T1, HLA-DR1; test: Resistance to SDS-induced chain dissociation of HLA-DR1 (SDS-PAGE); assay type: binding

Sequence: SDLSFSKDWSFYL [β2 m 52-64, reference compound]
- able to compete with HA 307-319 for binding to DR1 (HLA-DR1 [1]): Neither
- able to confer resistance to SDS-induced α-β chain dissociation of "empty" DR1 (HLA-DR1 [2]): Neither
